According to patent US20020068684A1, “Stripping and cleaning compositions” (priority 1999, published 2002):

Experiment: Corrosion inhibitor efficiency from metal etch rates, blanket copper films, four point probe
Details: for corrosion inhibition of copper films relative to gallic acid: DMAC, water, 45% choline hydroxide (wt % of 64/30/6)

O=C(O)c1ccccc1 [Benzoic Acid]
corrosion inhibition of copper films relative to gallic acid: same protection as gallic acid

O=C(O)CC(=O)O [Malonic Acid]
corrosion inhibition for copper compared with other inhibitors (1 wt % vs 5 wt % of 8-HQ, catechol, pyrogallol, gallic acid, benzoic acid and benzotriazole): better corrosion inhibition

CCOC(=O)c1cc(O)c(O)c(O)c1 [ethyl gallate]
corrosion inhibition of copper films relative to gallic acid: did not provide the same level of corrosion inhibition as gallic acid
